## Primary screen of a compound library

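Whole-parasite assay of Trypanosoma brucei over 72 hours; the read-out is not stated. Concentration: 10 µM. The record gives no direction; compounds that gave an IC50 in retests scored well above the rest, so higher reads as stronger inhibition. Values scatter widely below zero; nearly all retest evidence comes from the higher of the two concentrations used. Size under these conditions: about 2,700 compounds, about 14 of them at 50% or above in at least one test.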

Values are the deposited “Percent Effect”, in %. The controls that fix the scale are not given in the record; negative values are as filed. Compounds were drawn at random from those tested, without regard to their results.

SMILES | effect
CC(C)CN1CCN(C(=O)CCn2cccn2)CC1 | -83.13%
Cc1ncc(CN2CCCC(c3cc(C(F)(F)F)[nH]n3)C2)s1 (centres undefined) | -14.48%
Cc1cnn(CC2CN(Cc3nccn3CC(F)(F)F)CCO2)c1 (centres undefined) | -28.91%
Cc1ccccc1CN(C)C(=O)CN1CCOC(Cn2cccn2)C1 (centres undefined) | -42.13%
CC(C)OCc1cccc(CNc2cnn(C)c(=O)c2Cl)c1 | -21.42%
Cc1nc(C)n(CC2CCCN2CCOc2cccc(F)c2)n1 (centres undefined) | -44.43%
COc1cc(C)nc(N2CCN(C(=O)COCC3CC3)CC2)n1 | -20.37%
CCc1nc(C2CCCN2C(=O)c2ccc(N(C)C)nn2)no1 (centres undefined) | -25.63%
Cc1nn(C)c(N2CCOCC2)c1CNCc1ccc(N(C)C)nc1 | -32.69%
c1ncn(CC2CN(Cc3ccc4c(c3)OCCO4)CCO2)n1 (centres undefined) | -46.69%
CC(Cn1cccn1)NC(=O)NCc1ccc(C(N)=O)cc1 (centres undefined) | -56.15%
Cc1nn(C)c(N2CCOCC2)c1CNC1CCc2ccccc21 (centres undefined) | -57.16%
CC1CN(C)CCN1CC(=O)NCCOc1ccc(Cl)cc1 (centres undefined) | -85.15%
COc1c(CNC2CCc3cc(C)ccc32)c(C)nn1C (centres undefined) | -41.43%
O=C(NCCC(=O)N1CCCc2ccccc21)c1cc(F)cc(F)c1 | -49.54%
CC(C)c1nnc2n1CCN(C(=O)c1cc(Cl)c[nH]1)C2 | -48.26%
COC(=O)NCC(=O)NCc1nn(-c2ccccc2)c2c1CCC2 | -1.749%
CCN(CC1CCOC1)C(=O)c1cnc2onc(C)c2c1 (centres undefined) | -17.27%
Nc1cc2c(nn1)CCN(C(=O)c1cccc3c1OCO3)C2 | -27.75%
Cc1nc(CNC(=O)N(C)Cc2cnn(C)c2)cs1 | -104.3%
CCOc1ncccc1NC(=O)NC1CCN(C(C)=O)CC1 | -66.84%
CCOCCN1CCN(Cc2nc(CC(C)C)no2)CC1 | -35.96%
Cc1cc(C)n(CC2CN(c3ncnc4[nH]ccc34)CCO2)n1 (centres undefined) | -28.99%
Cc1cc(C)n(C2CN(CC(=O)NC(C3CC3)C3CC3)C2)n1 | -8.701%
Cn1cc(CCNC(=O)N2CCCC(c3nncn3C)C2)cn1 (centres undefined) | -43.34%
c1cnc(-c2nc(CN3CCCN(Cc4cccs4)CC3)cs2)nc1 | -75.51%
NC(=O)C1CCN(C(=O)c2cccn2Cc2cccs2)CC1 | -16.19%
CCn1cc(NC(=O)NCC(C)N(C)C)cn1 (centres undefined) | -8.434%
Cn1nc2c(cc1=O)CN(Cc1nc(-c3ccsc3)no1)CC2 | -15.48%
O=C(O)c1cc(NS(=O)(=O)c2ccc(Br)s2)c(F)cc1F | -41.55%
CCCc1noc(CCC(=O)N2CCCC2c2cccs2)n1 (centres undefined) | -0.5075%
CCn1cc(CN2CCCN(C(=O)c3ccoc3C)CC2)cn1 | -40.03%
COc1ccc(CC(=O)N2CCCC2Cn2cc(C)cn2)c(OC)c1 (centres undefined) | -31.16%
Cc1ccc(OCC(O)CN2CCc3c(ncn3C3CC3)C2)cc1 (centres undefined) | -47.7%
Cc1noc(C(C)N2CCN(CCOCC(F)(F)F)CC2)n1 (centres undefined) | -54.93%
CC(=O)N1CCCC(C(=O)NCCOc2cc(C)cc(C)c2)C1 (centres undefined) | -19.2%
COc1ncccc1CNC(=O)NCCNS(C)(=O)=O | -10.24%
COc1ccc(C(=O)N2CCN(CCO)CC2)c(F)c1 | -51.84%
CN(Cc1cnccn1)S(=O)(=O)N1CCCC1c1ccco1 (centres undefined) | -61.78%
CCN(Cc1ccc2c(c1)OCO2)S(=O)(=O)N(C)C(C)C | -40.21%
Cc1ccccc1C(=O)NCCCN1CCc2ccccc2C1 | 0.7842%
O=C(O)c1c[nH]c2cc(NS(=O)(=O)c3ccc(Cl)cc3F)ccc12 | -62.87%
Cc1nn(C)c(Cl)c1C1CCCN1Cc1ccc(C(N)=O)cc1 (centres undefined) | -1.567%
Cn1cnnc1C1CCCN(C(=O)NCCCn2cccn2)C1 (centres undefined) | -39.69%

The last 5 entries again:

SMILES,effect
CCN(Cc1ccc2c(c1)OCO2)S(=O)(=O)N(C)C(C)C,-40.21%
Cc1ccccc1C(=O)NCCCN1CCc2ccccc2C1,0.7842%
O=C(O)c1c[nH]c2cc(NS(=O)(=O)c3ccc(Cl)cc3F)ccc12,-62.87%
Cc1nn(C)c(Cl)c1C1CCCN1Cc1ccc(C(N)=O)cc1 (centres undefined),-1.567%
Cn1cnnc1C1CCCN(C(=O)NCCCn2cccn2)C1 (centres undefined),-39.69%

The values are deposited in ChEMBL (CHEMBL3988442, “University of Dundee, Small-Polar-MMV Screening Library” (2021)).